{"sequences": {"note": "Protein sequences, listed by entry. Tags and fused reporters are not part of them. Residues count along the entry.", "UniProt P22888, residues 27-699": "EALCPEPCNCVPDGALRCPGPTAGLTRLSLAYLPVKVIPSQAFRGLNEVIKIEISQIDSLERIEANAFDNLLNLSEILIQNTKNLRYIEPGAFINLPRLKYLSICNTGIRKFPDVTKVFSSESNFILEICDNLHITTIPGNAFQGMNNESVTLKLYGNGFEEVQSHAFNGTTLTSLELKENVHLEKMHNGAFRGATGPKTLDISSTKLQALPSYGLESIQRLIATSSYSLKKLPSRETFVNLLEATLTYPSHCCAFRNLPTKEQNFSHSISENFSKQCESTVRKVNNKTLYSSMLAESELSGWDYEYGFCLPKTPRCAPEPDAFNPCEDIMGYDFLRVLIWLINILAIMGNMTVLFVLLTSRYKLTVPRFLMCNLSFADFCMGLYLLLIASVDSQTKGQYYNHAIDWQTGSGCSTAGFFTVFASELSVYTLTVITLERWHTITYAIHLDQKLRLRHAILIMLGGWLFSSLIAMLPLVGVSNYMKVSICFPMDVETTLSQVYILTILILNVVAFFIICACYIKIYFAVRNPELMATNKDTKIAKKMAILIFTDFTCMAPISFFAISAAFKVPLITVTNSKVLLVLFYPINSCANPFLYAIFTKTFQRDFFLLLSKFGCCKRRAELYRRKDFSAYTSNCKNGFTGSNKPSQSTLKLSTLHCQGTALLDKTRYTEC", "UniProt P32121": "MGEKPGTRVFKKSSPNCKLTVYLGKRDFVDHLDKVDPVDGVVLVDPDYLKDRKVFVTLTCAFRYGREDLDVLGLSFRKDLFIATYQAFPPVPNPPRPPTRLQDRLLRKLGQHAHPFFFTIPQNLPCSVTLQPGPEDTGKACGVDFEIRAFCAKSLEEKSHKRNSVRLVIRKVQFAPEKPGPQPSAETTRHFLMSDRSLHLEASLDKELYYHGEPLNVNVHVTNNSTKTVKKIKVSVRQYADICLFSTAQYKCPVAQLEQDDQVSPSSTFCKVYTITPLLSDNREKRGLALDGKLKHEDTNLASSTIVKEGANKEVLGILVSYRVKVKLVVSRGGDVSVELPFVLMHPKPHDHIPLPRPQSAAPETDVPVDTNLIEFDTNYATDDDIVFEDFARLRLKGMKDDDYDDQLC"}, "source": "paper PMC4550792", "key": {"hLHR-Rluc8 (human)": {"target": "hLHR-Rluc8 (human) (UniProt P22888)", "experiment": "FRET or BRET; real-time BRET kinetics in live HEK 293 cells transiently co-expressing receptor-Rluc8 (donor) and yPET-β-arrestin 2 (acceptor); basal (vehicle) and after 10 nM hFSH or hCG; coelenterazine h 5 μM; PBS-HEPES 10 mM; 96-well format"}, "hFSHR-Rluc8 (human)": {"target": "T1, hFSHR-Rluc8 (human) (UniProt P23945)", "T1 sequence": "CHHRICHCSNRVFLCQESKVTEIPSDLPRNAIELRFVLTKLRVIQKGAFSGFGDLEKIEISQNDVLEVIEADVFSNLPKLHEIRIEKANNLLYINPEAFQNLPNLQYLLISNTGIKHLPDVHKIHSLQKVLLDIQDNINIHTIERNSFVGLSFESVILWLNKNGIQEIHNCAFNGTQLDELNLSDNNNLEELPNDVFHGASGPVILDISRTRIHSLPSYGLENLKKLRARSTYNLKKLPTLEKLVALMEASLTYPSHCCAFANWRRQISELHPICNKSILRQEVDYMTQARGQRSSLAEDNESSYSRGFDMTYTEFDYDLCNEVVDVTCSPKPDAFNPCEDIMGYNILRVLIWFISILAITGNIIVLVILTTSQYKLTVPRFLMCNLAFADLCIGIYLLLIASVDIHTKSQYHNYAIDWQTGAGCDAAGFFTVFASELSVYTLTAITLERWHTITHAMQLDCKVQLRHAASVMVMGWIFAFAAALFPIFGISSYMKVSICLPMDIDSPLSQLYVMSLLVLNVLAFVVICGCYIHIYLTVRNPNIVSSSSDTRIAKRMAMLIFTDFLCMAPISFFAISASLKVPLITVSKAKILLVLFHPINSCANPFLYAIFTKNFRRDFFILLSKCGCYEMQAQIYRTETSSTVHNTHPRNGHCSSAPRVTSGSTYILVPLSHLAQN", "experiment": "FRET or BRET; real-time BRET kinetics in live HEK 293 cells transiently co-expressing receptor-Rluc8 (donor) and yPET-β-arrestin 2 (acceptor); basal (vehicle) and after 10 nM hFSH or hCG; coelenterazine h 5 μM; PBS-HEPES 10 mM; 96-well format"}}, "note": "These are yes or no findings as the source states them, for the method shown. In cells and extracts the contact can be indirect. Some binding calls cover weakened binding; strength is not graded here. For some assays here: Where a sequence is shown, tags or fusion partners need not be part of it."}
{"substance": "yPET-β-arrestin 2 (from UniProt P32121 1-409)", "values": [{"measurement": "binding", "setting": "hLHR-Rluc8 (human)", "result": "binds"}, {"measurement": "binding", "setting": "hFSHR-Rluc8 (human)", "result": "binds"}]}
